Laboratory results reported in the supplement of paper PMC10849652.
This is one part of the list.

Chains of the proteins cited; added tags and fusions are not shown. Lines headed by an entry give the natural chain unless they say otherwise; changes in a name come on top.
UniProt Q11201: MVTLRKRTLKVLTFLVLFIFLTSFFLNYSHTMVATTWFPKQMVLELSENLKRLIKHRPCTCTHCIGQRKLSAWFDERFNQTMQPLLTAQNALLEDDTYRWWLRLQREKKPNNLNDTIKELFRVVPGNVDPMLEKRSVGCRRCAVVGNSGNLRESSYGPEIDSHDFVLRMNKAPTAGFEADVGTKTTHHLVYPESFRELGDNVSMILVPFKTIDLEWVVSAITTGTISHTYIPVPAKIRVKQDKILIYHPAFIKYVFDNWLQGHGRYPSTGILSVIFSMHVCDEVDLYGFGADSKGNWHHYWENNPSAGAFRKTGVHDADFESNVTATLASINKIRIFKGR
UniProt O43597: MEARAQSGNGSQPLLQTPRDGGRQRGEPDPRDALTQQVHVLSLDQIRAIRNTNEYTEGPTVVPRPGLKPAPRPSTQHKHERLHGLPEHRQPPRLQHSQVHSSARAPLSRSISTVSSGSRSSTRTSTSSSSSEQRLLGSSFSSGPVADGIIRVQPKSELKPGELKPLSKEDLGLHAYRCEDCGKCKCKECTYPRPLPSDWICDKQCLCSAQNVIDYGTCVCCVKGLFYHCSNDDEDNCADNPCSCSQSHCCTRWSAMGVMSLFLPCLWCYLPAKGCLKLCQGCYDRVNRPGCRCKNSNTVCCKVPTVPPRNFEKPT
UniProt P49675, whole entry, looked up: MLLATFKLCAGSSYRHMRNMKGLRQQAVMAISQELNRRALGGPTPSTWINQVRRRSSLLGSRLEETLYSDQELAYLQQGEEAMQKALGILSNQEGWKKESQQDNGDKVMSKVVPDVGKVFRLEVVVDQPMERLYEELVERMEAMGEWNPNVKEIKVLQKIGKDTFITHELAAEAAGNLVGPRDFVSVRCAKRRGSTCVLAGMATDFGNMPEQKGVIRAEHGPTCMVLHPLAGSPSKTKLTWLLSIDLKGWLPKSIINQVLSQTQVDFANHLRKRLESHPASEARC
UniProt P43308: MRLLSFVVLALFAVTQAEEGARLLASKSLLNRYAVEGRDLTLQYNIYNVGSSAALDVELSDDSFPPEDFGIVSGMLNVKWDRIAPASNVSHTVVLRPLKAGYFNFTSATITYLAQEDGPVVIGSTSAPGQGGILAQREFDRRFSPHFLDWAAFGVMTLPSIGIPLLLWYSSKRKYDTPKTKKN
UniProt Q9ULZ2: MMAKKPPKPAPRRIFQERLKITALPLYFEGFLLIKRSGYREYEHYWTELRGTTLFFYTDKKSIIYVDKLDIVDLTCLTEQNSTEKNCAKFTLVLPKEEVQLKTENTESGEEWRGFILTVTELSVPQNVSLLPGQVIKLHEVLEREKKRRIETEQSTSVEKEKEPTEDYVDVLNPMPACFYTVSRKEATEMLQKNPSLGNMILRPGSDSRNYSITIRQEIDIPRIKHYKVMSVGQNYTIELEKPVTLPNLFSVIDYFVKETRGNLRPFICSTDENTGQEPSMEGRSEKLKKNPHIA
UniProt Q15532, whole entry, looked up: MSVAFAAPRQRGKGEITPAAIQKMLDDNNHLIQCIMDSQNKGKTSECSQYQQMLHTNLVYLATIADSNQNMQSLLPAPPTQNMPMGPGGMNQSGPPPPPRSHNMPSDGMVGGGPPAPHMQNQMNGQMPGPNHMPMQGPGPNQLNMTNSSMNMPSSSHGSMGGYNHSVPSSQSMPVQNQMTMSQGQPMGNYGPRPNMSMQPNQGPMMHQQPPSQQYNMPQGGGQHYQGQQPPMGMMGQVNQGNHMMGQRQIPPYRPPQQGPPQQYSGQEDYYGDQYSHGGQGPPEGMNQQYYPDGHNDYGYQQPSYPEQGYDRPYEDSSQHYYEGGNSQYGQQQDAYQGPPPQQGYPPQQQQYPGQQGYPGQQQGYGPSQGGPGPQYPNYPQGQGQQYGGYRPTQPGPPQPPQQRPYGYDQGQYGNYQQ
UniProt Q5T280: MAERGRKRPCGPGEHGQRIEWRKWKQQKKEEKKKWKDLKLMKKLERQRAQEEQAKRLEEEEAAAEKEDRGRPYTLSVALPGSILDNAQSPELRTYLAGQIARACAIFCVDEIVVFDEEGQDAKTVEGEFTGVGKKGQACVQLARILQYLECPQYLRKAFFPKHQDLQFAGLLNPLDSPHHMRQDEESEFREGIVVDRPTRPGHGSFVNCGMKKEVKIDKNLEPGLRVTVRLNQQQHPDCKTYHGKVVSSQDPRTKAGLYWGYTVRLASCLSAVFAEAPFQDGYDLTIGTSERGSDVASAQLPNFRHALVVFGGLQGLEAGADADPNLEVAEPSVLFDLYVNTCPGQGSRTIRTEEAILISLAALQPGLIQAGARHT
UniProt Q9NY15: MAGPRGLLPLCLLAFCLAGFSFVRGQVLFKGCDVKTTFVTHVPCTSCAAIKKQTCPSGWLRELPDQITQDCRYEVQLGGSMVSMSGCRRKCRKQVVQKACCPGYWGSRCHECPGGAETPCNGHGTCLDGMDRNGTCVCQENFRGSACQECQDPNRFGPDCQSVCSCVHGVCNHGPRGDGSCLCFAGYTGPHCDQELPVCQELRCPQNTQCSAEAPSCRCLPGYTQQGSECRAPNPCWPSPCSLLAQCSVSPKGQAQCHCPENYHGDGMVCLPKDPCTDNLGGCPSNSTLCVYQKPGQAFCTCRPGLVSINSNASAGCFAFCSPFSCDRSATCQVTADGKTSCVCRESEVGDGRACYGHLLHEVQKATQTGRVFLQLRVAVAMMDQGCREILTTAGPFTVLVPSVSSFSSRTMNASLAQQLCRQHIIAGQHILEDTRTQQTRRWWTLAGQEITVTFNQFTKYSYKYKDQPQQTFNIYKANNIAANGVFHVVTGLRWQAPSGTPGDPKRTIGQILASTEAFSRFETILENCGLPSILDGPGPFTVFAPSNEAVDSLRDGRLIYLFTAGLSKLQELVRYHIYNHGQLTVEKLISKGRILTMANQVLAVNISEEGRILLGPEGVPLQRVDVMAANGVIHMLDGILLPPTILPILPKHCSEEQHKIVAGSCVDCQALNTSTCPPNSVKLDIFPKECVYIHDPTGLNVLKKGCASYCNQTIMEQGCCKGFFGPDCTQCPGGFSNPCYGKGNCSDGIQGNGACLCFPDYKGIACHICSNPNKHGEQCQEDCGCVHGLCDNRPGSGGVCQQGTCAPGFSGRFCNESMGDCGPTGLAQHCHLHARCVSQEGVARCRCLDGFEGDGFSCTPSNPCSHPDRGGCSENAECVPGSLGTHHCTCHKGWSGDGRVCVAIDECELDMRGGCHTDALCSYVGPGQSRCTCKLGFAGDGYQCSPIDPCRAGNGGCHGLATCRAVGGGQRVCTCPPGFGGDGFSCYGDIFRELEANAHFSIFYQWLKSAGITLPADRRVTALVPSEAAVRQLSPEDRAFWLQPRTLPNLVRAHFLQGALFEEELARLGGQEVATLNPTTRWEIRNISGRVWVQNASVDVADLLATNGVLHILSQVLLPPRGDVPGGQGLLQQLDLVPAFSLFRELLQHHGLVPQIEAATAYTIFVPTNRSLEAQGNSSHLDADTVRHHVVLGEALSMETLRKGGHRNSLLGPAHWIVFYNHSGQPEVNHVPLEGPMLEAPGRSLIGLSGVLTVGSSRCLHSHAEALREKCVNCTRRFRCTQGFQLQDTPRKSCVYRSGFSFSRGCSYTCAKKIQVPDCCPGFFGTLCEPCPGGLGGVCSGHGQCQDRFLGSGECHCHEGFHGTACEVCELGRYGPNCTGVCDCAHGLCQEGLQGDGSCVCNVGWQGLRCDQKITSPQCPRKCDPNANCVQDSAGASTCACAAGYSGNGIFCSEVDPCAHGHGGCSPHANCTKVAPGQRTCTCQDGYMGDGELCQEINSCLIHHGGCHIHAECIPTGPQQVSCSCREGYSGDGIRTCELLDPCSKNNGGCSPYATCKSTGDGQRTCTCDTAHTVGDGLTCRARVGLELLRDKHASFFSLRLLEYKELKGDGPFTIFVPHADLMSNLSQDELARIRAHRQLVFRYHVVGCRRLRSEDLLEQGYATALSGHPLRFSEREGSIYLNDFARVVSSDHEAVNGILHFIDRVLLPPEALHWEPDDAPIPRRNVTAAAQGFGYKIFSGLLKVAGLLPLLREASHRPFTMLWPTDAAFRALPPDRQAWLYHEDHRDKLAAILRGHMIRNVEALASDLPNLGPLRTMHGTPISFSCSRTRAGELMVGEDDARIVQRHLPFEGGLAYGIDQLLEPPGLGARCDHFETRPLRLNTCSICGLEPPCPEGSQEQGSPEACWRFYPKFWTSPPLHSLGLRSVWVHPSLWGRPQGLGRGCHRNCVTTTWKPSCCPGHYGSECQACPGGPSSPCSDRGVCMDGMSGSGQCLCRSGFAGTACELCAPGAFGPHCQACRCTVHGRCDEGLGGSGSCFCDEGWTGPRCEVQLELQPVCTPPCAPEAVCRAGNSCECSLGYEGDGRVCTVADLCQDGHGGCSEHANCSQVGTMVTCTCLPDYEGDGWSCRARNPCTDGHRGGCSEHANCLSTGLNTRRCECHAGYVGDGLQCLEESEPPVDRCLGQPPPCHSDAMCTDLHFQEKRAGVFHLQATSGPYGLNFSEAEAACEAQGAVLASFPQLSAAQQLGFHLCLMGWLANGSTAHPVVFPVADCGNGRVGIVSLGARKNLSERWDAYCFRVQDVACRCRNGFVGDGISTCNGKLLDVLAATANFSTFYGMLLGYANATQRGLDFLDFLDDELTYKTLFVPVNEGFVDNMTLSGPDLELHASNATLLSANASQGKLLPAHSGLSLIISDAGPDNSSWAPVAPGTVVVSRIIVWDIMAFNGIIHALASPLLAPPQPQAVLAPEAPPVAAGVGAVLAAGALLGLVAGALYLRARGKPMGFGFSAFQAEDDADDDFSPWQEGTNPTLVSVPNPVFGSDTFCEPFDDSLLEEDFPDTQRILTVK
UniProt Q7Z698: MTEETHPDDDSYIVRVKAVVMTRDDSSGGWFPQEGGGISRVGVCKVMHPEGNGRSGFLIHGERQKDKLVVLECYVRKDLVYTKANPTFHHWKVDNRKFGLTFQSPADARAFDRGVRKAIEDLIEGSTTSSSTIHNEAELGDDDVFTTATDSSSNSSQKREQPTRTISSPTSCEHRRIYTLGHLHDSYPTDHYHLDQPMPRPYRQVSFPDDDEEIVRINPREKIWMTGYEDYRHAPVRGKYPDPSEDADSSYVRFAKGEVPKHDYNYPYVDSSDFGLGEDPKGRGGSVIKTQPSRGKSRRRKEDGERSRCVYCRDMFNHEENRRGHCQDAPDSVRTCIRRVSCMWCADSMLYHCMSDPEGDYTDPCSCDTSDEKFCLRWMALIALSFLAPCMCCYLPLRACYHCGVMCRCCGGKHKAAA
UniProt P36956: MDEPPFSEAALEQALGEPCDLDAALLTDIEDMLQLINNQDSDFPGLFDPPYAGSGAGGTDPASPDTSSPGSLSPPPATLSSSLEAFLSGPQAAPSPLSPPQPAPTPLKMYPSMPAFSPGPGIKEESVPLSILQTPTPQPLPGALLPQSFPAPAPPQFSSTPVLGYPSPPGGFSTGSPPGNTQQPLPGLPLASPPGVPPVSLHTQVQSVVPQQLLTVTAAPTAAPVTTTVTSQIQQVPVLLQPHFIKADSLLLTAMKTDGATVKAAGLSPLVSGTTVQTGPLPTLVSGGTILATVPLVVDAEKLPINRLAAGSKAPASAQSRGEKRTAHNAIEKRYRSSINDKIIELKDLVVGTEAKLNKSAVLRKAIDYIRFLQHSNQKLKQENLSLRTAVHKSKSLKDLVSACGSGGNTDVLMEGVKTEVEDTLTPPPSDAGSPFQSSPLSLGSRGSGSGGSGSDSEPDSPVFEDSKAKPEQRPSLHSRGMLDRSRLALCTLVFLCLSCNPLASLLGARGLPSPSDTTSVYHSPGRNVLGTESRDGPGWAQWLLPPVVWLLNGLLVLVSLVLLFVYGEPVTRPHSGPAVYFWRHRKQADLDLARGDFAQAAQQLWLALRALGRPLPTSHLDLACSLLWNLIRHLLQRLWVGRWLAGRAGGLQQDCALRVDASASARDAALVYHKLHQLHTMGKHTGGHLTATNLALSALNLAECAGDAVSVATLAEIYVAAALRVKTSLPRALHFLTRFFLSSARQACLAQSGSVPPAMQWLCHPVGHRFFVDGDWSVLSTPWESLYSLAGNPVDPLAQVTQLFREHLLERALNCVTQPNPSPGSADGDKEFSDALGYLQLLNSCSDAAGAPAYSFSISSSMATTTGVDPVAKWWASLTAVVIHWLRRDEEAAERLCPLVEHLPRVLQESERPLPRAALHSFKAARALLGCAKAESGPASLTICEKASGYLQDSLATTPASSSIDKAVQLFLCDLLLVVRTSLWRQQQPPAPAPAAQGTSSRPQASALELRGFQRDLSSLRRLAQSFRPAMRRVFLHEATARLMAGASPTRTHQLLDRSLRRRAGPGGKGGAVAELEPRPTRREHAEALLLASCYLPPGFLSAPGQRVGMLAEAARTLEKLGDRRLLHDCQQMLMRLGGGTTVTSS
UniProt Q16384, whole entry, looked up: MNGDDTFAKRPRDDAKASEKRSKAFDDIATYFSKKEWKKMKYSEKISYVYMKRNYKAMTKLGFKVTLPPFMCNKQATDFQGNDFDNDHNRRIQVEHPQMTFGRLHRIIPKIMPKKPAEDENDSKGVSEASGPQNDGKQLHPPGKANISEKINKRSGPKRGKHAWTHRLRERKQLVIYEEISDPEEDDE

Columns and labels:
Test in all cases: log2 fold change, soluble protein after heating vs DMSO (PISA); higher = thermal stabilisation; K562 lysate, 10 uM; active = over 0.2 and 3.5 SD of the protein, either way, in both replicates (recomputed)
[1] = compound: CC[C@@H]1C(=O)N(C)c2cnc(Nc3ccc(C(=O)NC4CCN(C)CC4)cc3OC)nc2N1C1CCCC1
Summary of the method: (§1)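 Log-two fold change in thermal stability relative to solvent controls is reported from duplicates. For each sample, crude K562 extract from dounce-homogenised pellets in PBS pH 7.4 with 1 mM MgCl2, at 1 mg/mL protein, was treated with 10 μM compound for 30 min. Aliquots heated for 3 min across 48°C-58°C were pooled, brought to 0.5% NP-40 at 4°C and cleared at 21,000xg for 90 min. The supernatant was quantified by TMTpro 16plex LC-MS/MS with channel sums equalised.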

[2] = compound: CCn1cc(-c2ccnc3[nH]c(-c4cccc(CN(C)C)c4)cc23)c(-c2ccc(NC(=O)N(C)C)cc2)n1
Summary of the method: as §1

[3] = compound: CN1CCC(CNc2ccc3ncc(-c4cccc(OC(F)(F)F)c4)n3n2)CC1
Summary of the method: as §1

ralimetinib = compound: CC(C)(C)Cn1c(N)nc2ccc(-c3[nH]c(C(C)(C)C)nc3-c3ccc(F)cc3)nc21 [ralimetinib]
Summary of the method: as §1

[4] = compound: CC(C)(O)CC(=O)NCCn1ccc2ncnc(Nc3ccc(Oc4cccc(C(F)(F)F)c4)c(Cl)c3)c21
Summary of the method: as §1

[5] = compound: CC1=C(C2=C(C=C1)C(=O)C3=CC=CC=C3N2CCCN)C
Summary of the method: as §1

[6] = compound: CC1=C(C=C(C=C1)NC(=O)C2=CC(=CC=C2)C(C)(C)C#N)NC3=CC4=C(C=C3)N=CN(C4=O)C
Summary of the method: as §1

[7] = compound: CC1=C(C=C(C=C1)NC(=O)C2=CC(=CC=C2)N(C)C)NC(=O)C3=CC=C(C=C3)O
Summary of the method: as §1

[8] = compound: CCn1c(C(=O)N(C2CC2)C2CC2)cc2c3c(ncn3C)c(Nc3cc(C)n(C)n3)nc21
Summary of the method: as §1

saracatinib = compound: CN1CCN(CCOc2cc(OC3CCOCC3)c3c(Nc4c(Cl)ccc5c4OCO5)ncnc3c2)CC1 [saracatinib]
Summary of the method: as §1

sotrastaurin = compound: CN1CCN(c2nc(C3=C(c4c[nH]c5ccccc45)C(=O)NC3=O)c3ccccc3n2)CC1 [sotrastaurin]
Summary of the method: as §1

[9] = compound: CC(=O)c1cnc2ccc(-c3cc(Cl)c(O)c(Cl)c3)nc2c1N[C@H]1CC[C@H](CN(C)C)CC1
Summary of the method: as §1

[10] = compound: CC(C)C1=C2N=C(C=C(N2N=C1)NCC3=CC=CC=C3)NCCCCCCN
Summary of the method: as §1

[11] = compound: CC1=C(C(CC(=O)N1)C2=CC=C(C=C2)C(F)(F)F)C(=O)NC3=C(C=C4C(=C3)C=NN4)F
Summary of the method: as §1

[12] = compound: CC1=CC=C(C=C1)SC2=C3C=C(SC3=CN=C2)C(=O)N
Summary of the method: as §1

vemurafenib = compound: CCCS(=O)(=O)Nc1ccc(F)c(C(=O)c2c[nH]c3ncc(-c4ccc(Cl)cc4)cc23)c1F [vemurafenib]
Summary of the method: as §1

[13] = compound: CCCS(=O)(=O)Nc1ccc(F)c(C(=O)c2c[nH]c3ncc(Cl)cc23)c1F
Summary of the method: as §1

volasertib = compound: CC[C@@H]1C(=O)N(C)c2cnc(Nc3ccc(C(=O)N[C@H]4CC[C@H](N5CCN(CC6CC6)CC5)CC4)cc3OC)nc2N1C(C)C [volasertib]
Summary of the method: as §1

ibrutinib = compound: C=CC(=O)N1CCC[C@@H](n2nc(-c3ccc(Oc4ccccc4)cc3)c3c(N)ncnc32)C1 [ibrutinib]
Summary of the method: as §1

barasertib = compound: CCN(CCCOc1ccc2c(Nc3cc(CC(=O)Nc4cccc(F)c4)[nH]n3)ncnc2c1)CCOP(=O)(O)O [barasertib]
Summary of the method: as §1

Measured: log2 fold change

STARD4 (UniProt Q96DR4)
inactive: [1] 0.029 | [2] -0.05 | [3] -0.045

SRRD (UniProt Q9UH36)
inactive: ralimetinib -0.051 | [4] 0.078 | [5] 0.062 | [6] 0.05 | [7] -0.447 | [8] -0.216 | [2] -0.057 | [3] -0.042 | saracatinib -0.244 | sotrastaurin -0.004

SRGAP2, A0A075B7B5
inactive: [6] 0.029 | sotrastaurin 0.144

ST3GAL1 (UniProt Q11201)
inactive: [5] -0.244 | [6] -0.076 | saracatinib -0.186 | sotrastaurin 0

STC2 (UniProt O76061)
inactive: [9] 0.219 | ralimetinib -0.049 | [4] 0.016 | [10] -0.015 | [11] -0.016 | [5] -0.075 | [6] -0.024 | [7] 0.041 | [12] -0.022 | vemurafenib 0.055 | [13] -0.247 | [1] 0.019 | volasertib -0.057 | [8] 0.094 | [2] 0.089 | [3] -0.02 | saracatinib -0.092 | sotrastaurin -0.038

SPRY2 (UniProt O43597)
inactive: [10] -0.084

ST13P4 (UniProt Q8IZP2)
inactive: ralimetinib 0.091 | [4] -0.099 | [10] -0.07 | [7] 0.042 | vemurafenib 0.07 | [8] -0.059

STAR (UniProt P49675)
inactive: ralimetinib -0.139 | [4] 0.02 | [10] 0.073 | [11] -0.027 | [5] -0.052 | [6] -0.049 | [7] -0.039 | vemurafenib 0.02 | [1] 0.074 | [8] 0.008 | [2] 0.043 | [3] -0.03 | saracatinib 0.006 | sotrastaurin 0.061

SSR2 (UniProt P43308)
inactive: ralimetinib 0.037 | [4] -0.019 | [7] -0.052 | [8] -0.04

STAM (UniProt A6NMU3)
inactive: [9] -0.011 | ralimetinib -0.026 | [4] -0.006 | [10] -0.003 | [5] 0.122 | [6] 0.011 | [7] -0.009 | [12] -0.08 | vemurafenib 0.126 | [13] -0.012 | [1] 0.036 | volasertib -0.006 | [8] -0.106 | saracatinib -0.08 | sotrastaurin -0.057

STAP1 (UniProt Q9ULZ2)
inactive: [10] -0.056 | [11] -0.201 | [5] -0.121 | saracatinib 0.082

SSH2 (UniProt Q76I76)
inactive: [9] 0.13 | ralimetinib 0.126 | [4] -0.001 | [10] -0.068 | [5] 0.038 | [6] 0.075 | [7] 0.004 | [12] 0.031 | vemurafenib 0 | [13] 0.17 | [1] -0.107 | volasertib -0.065 | [8] -0.063 | [2] 0.02 | [3] -0.14 | saracatinib -0.028 | sotrastaurin 0.067

SRCIN1 (UniProt Q9C0H9)
inactive: [9] -0.105 | ralimetinib 0.011 | [4] -0.172 | [10] -0.053 | [11] -0.074 | [7] 0.018 | [12] 0.007 | [13] 0.052 | [1] 0.026 | volasertib -0.043 | [8] -0.086 | [2] -0.014 | [3] -0.028

STAT1 isoform 2 (UniProt P42224)
inactive: [11] 0.035 | [6] -0.005 | sotrastaurin 0.11

SS18 (UniProt Q15532)
inactive: [9] -0.098 | ralimetinib 0.025 | [4] -0.035 | [10] -0.012 | [11] -0.125 | [5] -0.061 | [6] 0.117 | [7] -0.022 | [12] 0.077 | vemurafenib -0.04 | [13] -0.024 | [1] -0.102 | volasertib 0.143 | [8] 0.021 | [2] -0.075 | [3] -0.224 | saracatinib 0.052 | sotrastaurin -0.036

SQOR (UniProt Q9Y6N5)
inactive: [9] -0.147 | ralimetinib 0.021 | [4] 0.018 | [10] 0.082 | [5] 0.017 | [6] -0.021 | [7] 0.058 | [12] 0.01 | [13] 0.024 | [1] -0.033 | volasertib -0.041 | [8] -0.018 | saracatinib -0.03 | sotrastaurin -0.046

SPOUT1 (UniProt Q5T280)
inactive: [9] -0.052 | ralimetinib 0.03 | [4] -0.032 | [10] 0.074 | [11] -0.045 | [5] -0.023 | [7] 0.092 | [12] 0.029 | vemurafenib 0.077 | [13] -0.006 | [1] 0.089 | volasertib -0.009 | [8] -0.015 | saracatinib 0.015

SREK1IP1 (UniProt Q8N9Q2)
inactive: [9] 0.01 | ralimetinib 0.005 | [4] -0.032 | [10] -0.075 | [11] 0.016 | [6] -0.044 | [7] 0.023 | [12] 0.051 | [13] -0.019 | [1] 0.088 | volasertib -0.039 | [8] 0.058 | [2] 0.267 | [3] -0.102 | sotrastaurin -0.049

STAG2 (UniProt Q8N3U4)
inactive: [9] -0.02 | ralimetinib 0.016 | [4] -0.116 | [10] 0.042 | [6] 0.021 | [7] -0.064 | [12] 0.002 | [13] 0.107 | [1] 0.126 | volasertib 0.087 | [8] -0.036 | [2] -0.032 | [3] -0.005 | sotrastaurin -0.192

STAB1 (UniProt Q9NY15)
inactive: [9] 0.215 | ralimetinib -0.072 | [4] -0.184 | [10] 0.058 | [6] 0.203 | [7] -0.13 | [12] -0.064 | [13] 0.052 | volasertib -0.062 | [8] -0.321 | sotrastaurin 0.029

SPC24 (UniProt K7ESQ2)
inactive: [6] -0.001 | [1] 0.093 | [2] -0.036 | [3] -0.046 | sotrastaurin -0.066

SPICE1 (UniProt Q8N0Z3)
inactive: [10] 0.113 | [11] -0.332 | vemurafenib -0.099 | [1] -0.119

SPRTN (UniProt Q9H040)
inactive: ralimetinib 0.001 | [4] -0.073 | [5] 0.032 | [7] 0.067 | vemurafenib 0.046 | [1] 0.068 | [8] 0.243 | saracatinib -0.117

SPRED2 (UniProt Q7Z698)
inactive: ibrutinib 0.047 | [11] -0.041 | barasertib 0.005

SREBF1 isoform 4 (UniProt P36956)
inactive: [9] -0.099 | ralimetinib -0.025 | [4] -0.121 | [10] -0.076 | [5] -0.099 | [6] 0.058 | [7] 0.103 | [12] 0.112 | [13] -0.223 | volasertib -0.114 | [8] 0.051 | saracatinib 0.113 | sotrastaurin 0.03

SSX1 (UniProt Q16384)
inactive: ralimetinib 0.047 | [4] -0.038 | [10] -0.202 | [5] 0.106 | [6] 0.054 | [7] 0.308 | vemurafenib -0.298 | [1] -0.057 | [8] -0.096 | [2] 0.387 | [3] -0.247 | saracatinib -0.191 | sotrastaurin -0.044

8 successive entries already listed:
SQOR (UniProt Q9Y6N5)
inactive: [9] -0.147 | ralimetinib 0.021 | [4] 0.018 | [10] 0.082 | [5] 0.017 | [6] -0.021 | [7] 0.058 | [12] 0.01 | [13] 0.024 | [1] -0.033 | volasertib -0.041 | [8] -0.018 | saracatinib -0.03 | sotrastaurin -0.046

SPOUT1 (UniProt Q5T280)
inactive: [9] -0.052 | ralimetinib 0.03 | [4] -0.032 | [10] 0.074 | [11] -0.045 | [5] -0.023 | [7] 0.092 | [12] 0.029 | vemurafenib 0.077 | [13] -0.006 | [1] 0.089 | volasertib -0.009 | [8] -0.015 | saracatinib 0.015

SREK1IP1 (UniProt Q8N9Q2)
inactive: [9] 0.01 | ralimetinib 0.005 | [4] -0.032 | [10] -0.075 | [11] 0.016 | [6] -0.044 | [7] 0.023 | [12] 0.051 | [13] -0.019 | [1] 0.088 | volasertib -0.039 | [8] 0.058 | [2] 0.267 | [3] -0.102 | sotrastaurin -0.049

STAG2 (UniProt Q8N3U4)
inactive: [9] -0.02 | ralimetinib 0.016 | [4] -0.116 | [10] 0.042 | [6] 0.021 | [7] -0.064 | [12] 0.002 | [13] 0.107 | [1] 0.126 | volasertib 0.087 | [8] -0.036 | [2] -0.032 | [3] -0.005 | sotrastaurin -0.192

STAB1 (UniProt Q9NY15)
inactive: [9] 0.215 | ralimetinib -0.072 | [4] -0.184 | [10] 0.058 | [6] 0.203 | [7] -0.13 | [12] -0.064 | [13] 0.052 | volasertib -0.062 | [8] -0.321 | sotrastaurin 0.029

SPC24 (UniProt K7ESQ2)
inactive: [6] -0.001 | [1] 0.093 | [2] -0.036 | [3] -0.046 | sotrastaurin -0.066

SPICE1 (UniProt Q8N0Z3)
inactive: [10] 0.113 | [11] -0.332 | vemurafenib -0.099 | [1] -0.119

SPRTN (UniProt Q9H040)
inactive: ralimetinib 0.001 | [4] -0.073 | [5] 0.032 | [7] 0.067 | vemurafenib 0.046 | [1] 0.068 | [8] 0.243 | saracatinib -0.117
